# Laboratory results published in patent US6887878B2, “KMST isoeugenol derivatives and pharmaceutical activity” (Ing-Jun Chen, priority 2003, dated 2005).
# Test system: lipid peroxidation in rat brain homogenate
# Assay: lipid peroxidation initiated by Fe2+-ascorbic acid in rat brain homogenates (TBARS)
# Format: biochemical
# Conditions: read-out: IC50 inhibiting lipid peroxidation initiated by Fe2+-ascorbic acid
# Description: Rat brain homogenate was made in 0.9% saline containing 10 mg tissue/ml. The rates of membrane lipid peroxidation were measured by the formation of thiobarbituric acid (TBA)-reactive substance (TBARS). Rat brain homogenates (1 ml) were incubated at 37° C. for 5 min with 10 μl of test compound or vehicle. Lipid peroxidation was initiated by the addition of 0.1 ml of 0.25 mM FeCl2 and 1 mM ascorbic acid (Huang Y C. et al., Drug. Dev. Res., 47:77-89, 1999). After 30 min of incubation, the reaction was stopped by adding 0.1 ml of 0.2% BHT. TBA reagent was then added and the mixture was heated for 30 min in a boiling water bath. TBARS was extracted by n-butanol and measured at 532 nm. The amount of TBARS was quantified using the linear regression obtained from malondialdehyde (MDA) standards.
smiles,measurement,value
O=c1n(CCCN2CCN(c3cccc(Cl)c3)CC2)nc2ccccn12 [Trazodone],IC50,60.6 ± 0.76 µM
